Values from PubChem BioAssay AID1508597 (Cure First, 2020)
Aim: 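Genes whose silencing sensitises or protects ovarian cancer cells against rucaparib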 (primary screen). System: human ovarian carcinoma lines grown from tumours: OCI-P5x (papillary serous) and OCI-C5x (clear cell). Reagent: siRNA pool against human genes, 1.25 pmol siRNA per well. Time to read-out: 72 h or 96 h, depending on the cell culture. Challenge: rucaparib 20 µM (about IC30) or vehicle, present until read-out. Rucaparib or vehicle: Rucaparib. Cell line: OCI-C5x (clear cell). Measurement: 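ATP luminescence measured at 72 or 96 h according to the culture, then normalised and expressed as percent viability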. Scale: viability, normalised: higher = more viable cells remaining. Rule for the call: 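a well counts as a hit if its normalised viability is under 80 percent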. Calls: active = viability under 80%; inactive = viability 80% or more.
This is an unselected part of the about 2,100 reagents, in one setting of the screen. 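Calls flag viability under 80% in either arm, not effects specific to rucaparib; the reference for percent is not stated.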 Unmarked entries are inactive. Some reagents were tested in more than one well and are listed for each. Reagent sequences are not shown. Not stated in the record: the 100% reference.

| target | technical replicate | viability, normalised (%) |
| --- | --- | --- |
| VCAM1 (vascular cell adhesion molecule 1) | 1 | 67.5 (active) |
| VCAM1 (vascular cell adhesion molecule 1) | 2 | 42 (active) |
| VCAM1 (vascular cell adhesion molecule 1) | 3 | 42 (active) |
| MED6 (mediator complex subunit 6) | 1 | 41.4 (active) |
| MED6 (mediator complex subunit 6) | 2 | 33 (active) |
| MED6 (mediator complex subunit 6) | 3 | 35 (active) |
| RNF2 (ring finger protein 2) | 1 | 42.1 (active) |
| RNF2 (ring finger protein 2) | 2 | 36.2 (active) |
| RNF2 (ring finger protein 2) | 3 | 38.7 (active) |
| CBX5 (chromobox 5) | 1 | 51.1 (active) |
| CBX5 (chromobox 5) | 1 | 69.4 (active) |
| CBX5 (chromobox 5) | 2 | 70.1 (active) |
| CBX5 (chromobox 5) | 2 | 58.2 (active) |
| CBX5 (chromobox 5) | 3 | 65.7 (active) |
| CBX5 (chromobox 5) | 3 | 38.8 (active) |
| DDX11 (DEAD/H-box helicase 11) | 1 | 42.1 (active) |
| DDX11 (DEAD/H-box helicase 11) | 2 | 30.9 (active) |
| DDX11 (DEAD/H-box helicase 11) | 3 | 33 (active) |
| WDR45B (WD repeat domain 45B) | 1 | 63.3 (active) |
| WDR45B (WD repeat domain 45B) | 2 | 76.3 (active) |
| WDR45B (WD repeat domain 45B) | 3 | 46.7 (active) |
| WDR82 (WD repeat domain 82) | 1 | 71.9 (active) |
| WDR82 (WD repeat domain 82) | 2 | 48 (active) |
| WDR82 (WD repeat domain 82) | 3 | 45.7 (active) |
| TH (tyrosine hydroxylase) | 1 | 73.3 (active) |
| TH (tyrosine hydroxylase) | 2 | 65.6 (active) |
| TH (tyrosine hydroxylase) | 3 | 41 (active) |
| TDRD5 (tudor domain containing 5) | 1 | 52.2 (active) |
| TDRD5 (tudor domain containing 5) | 2 | 61.9 (active) |
| TDRD5 (tudor domain containing 5) | 3 | 54.9 (active) |
| PDCD10 (programmed cell death 10) | 1 | 51.9 (active) |
| PDCD10 (programmed cell death 10) | 2 | 61.2 (active) |
| PDCD10 (programmed cell death 10) | 3 | 49.9 (active) |

Records listed so far whose target name begins with M or m:
| target | technical replicate | viability, normalised (%) |
| --- | --- | --- |
| MED6 (mediator complex subunit 6) | 1 | 41.4 (active) |
| MED6 (mediator complex subunit 6) | 2 | 33 (active) |
| MED6 (mediator complex subunit 6) | 3 | 35 (active) |

Further records:
| target | technical replicate | viability, normalised (%) |
| --- | --- | --- |
| PDPK1 (3-phosphoinositide dependent protein kinase 1) | 1 | 36.1 (active) |
| PDPK1 (3-phosphoinositide dependent protein kinase 1) | 2 | 48.1 (active) |
| PDPK1 (3-phosphoinositide dependent protein kinase 1) | 3 | 48.5 (active) |
| CYP7A1 (cytochrome P450 family 7 subfamily A member 1) | 1 | 34.6 (active) |
| CYP7A1 (cytochrome P450 family 7 subfamily A member 1) | 2 | 20.4 (active) |
| CYP7A1 (cytochrome P450 family 7 subfamily A member 1) | 3 | 26.9 (active) |
| ITGB1 (integrin subunit beta 1) | 1 | 54.4 (active) |
| ITGB1 (integrin subunit beta 1) | 2 | 44 (active) |
| ITGB1 (integrin subunit beta 1) | 3 | 40.8 (active) |
| CDH5 (cadherin 5) | 1 | 51.6 (active) |
| CDH5 (cadherin 5) | 2 | 74.4 (active) |
| CDH5 (cadherin 5) | 3 | 50.7 (active) |
| PDE6A (phosphodiesterase 6A) | 1 | 66.2 (active) |
| PDE6A (phosphodiesterase 6A) | 2 | 59 (active) |
| PDE6A (phosphodiesterase 6A) | 3 | 42.1 (active) |
| LPA (lipoprotein(a)) | 1 | 54.2 (active) |
| LPA (lipoprotein(a)) | 2 | 43.2 (active) |
| LPA (lipoprotein(a)) | 3 | 45.4 (active) |
| ZSCAN20 (zinc finger and SCAN domain containing 20) | 1 | 75.3 (active) |
| ZSCAN20 (zinc finger and SCAN domain containing 20) | 2 | 71.3 (active) |
| ZSCAN20 (zinc finger and SCAN domain containing 20) | 3 | 40 (active) |
| RAD17 (RAD17 checkpoint clamp loader component) | 1 | 54.2 (active) |
| RAD17 (RAD17 checkpoint clamp loader component) | 2 | 50.5 (active) |
| RAD17 (RAD17 checkpoint clamp loader component) | 3 | 59.5 (active) |
